Reference: patent US5118669A (Hitachi Chemical Co., Ltd., priority 1989, dated 1992)
HELM strings list residues between dots; [ac] is acetyl, [am] amide, other brackets name non-standard units. *: point of attachment. Cbz = O=C(OCc1ccccc1)*; Boc = CC(C)(C)OC(=O)*; OBn = c1ccc(CO*)cc1

assay: general procedure: solution-phase peptide synthesis; DCC/HOBt; conditions: coupling step

Substance	step yield [%]
Cbz-D(OBn)SD(OBn)GK(Cbz)-OBn	31
Cbz-SD(OBn)GK(Cbz)-OBn	43
Boc-D(OBn)SD(OBn)GK(Cbz)-OBn	45.6
Boc-SD(OBn)GK(Cbz)-OBn	52
Cbz-AD(OBn)SD(OBn)GK(Cbz)-OBn	63.6

same assay, conditions: late stage modification step

Substance	step yield [%]
PEPTIDE1{A.D.S.D.G.K}$$$$V2.0	40
H Ser-Asp-Gly-Lys-OH (SDGK; printed: Ser-Asp-Gly-Lys-)	32
PEPTIDE1{D.S.D.G.K}$$$$V2.0	52.3
